Measured values reported in the supplement of paper PMC8728848.
The list shows a part of the results.

How the values were obtained:
Experiment in all cases: glycan array binding signal (z-score within array); higher = stronger binding
Details in all cases: glycan notation: IUPAC condensed, linker removed
Gal3S(b1-4)Glc = target: Gal3S(b1-4)Glc
Procedure, shortened: (§1)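 Negative Z-scores can be read as non-binding. The Z-score is calculated within each array and then averaged across arrays of one protein sequence at different concentrations or buffers and across linkers. Arrays, 3228 in all, were curated from the Consortium for Functional Glycomics database and kept only where the protein sequence was available.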

Gal3S(b1-4)Glc6S = target: Gal3S(b1-4)Glc6S
Procedure, shortened: as §1

Gal3S(b1-4)GlcNAc = target: Gal3S(b1-4)GlcNAc
Procedure, shortened: as §1

[1] = target: Gal3S(b1-4)[Fuc(a1-3)]Glc6S
Procedure, shortened: as §1

[2] = target: Gal3S(b1-4)[Fuc(a1-3)]GlcNAc
Procedure, shortened: as §1

[3] = target: Gal3S(b1-4)[Fuc(a1-3)]GlcNAc6S
Procedure, shortened: as §1

Gal3S4S(b1-4)GlcNAc = target: Gal3S4S(b1-4)GlcNAc
Procedure, shortened: as §1

Gal3S6S(b1-4)GlcNAc = target: Gal3S6S(b1-4)GlcNAc
Procedure, shortened: as §1

Gal3S6S(b1-4)GlcNAc6S = target: Gal3S6S(b1-4)GlcNAc6S
Procedure, shortened: as §1

Gal4S(b1-4)GlcNAc = target: Gal4S(b1-4)GlcNAc
Procedure, shortened: as §1

Gal4S6S(b1-4)GlcNAc = target: Gal4S6S(b1-4)GlcNAc
Procedure, shortened: as §1

Gal6P(b1-4)GlcNAc = target: Gal6P(b1-4)GlcNAc
Procedure, shortened: as §1

Gal6S(b1-3)GlcNAc = target: Gal6S(b1-3)GlcNAc
Procedure, shortened: as §1

Gal6S(b1-3)GlcNAc6S = target: Gal6S(b1-3)GlcNAc6S
Procedure, shortened: as §1

Gal6S(b1-4)Glc = target: Gal6S(b1-4)Glc
Procedure, shortened: as §1

Gal6S(b1-4)Glc6S = target: Gal6S(b1-4)Glc6S
Procedure, shortened: as §1

Gal6S(b1-4)GlcNAc = target: Gal6S(b1-4)GlcNAc
Procedure, shortened: as §1

Gal6S(b1-4)GlcNAc6S = target: Gal6S(b1-4)GlcNAc6S
Procedure, shortened: as §1

GalNAc(a1-3)Gal = target: GalNAc(a1-3)Gal
Procedure, shortened: as §1

GalNAc(a1-3)GalNAc = target: GalNAc(a1-3)GalNAc
Procedure, shortened: as §1

[4] = target: GalNAc(a1-3)GalNAc(b1-3)Gal(a1-4)Gal(b1-4)Glc
Procedure, shortened: as §1

[5] = target: GalNAc(a1-3)GalNAc(b1-3)Gal(a1-4)Gal(b1-4)GlcNAc
Procedure, shortened: as §1

GalNAc(b1-3)Gal = target: GalNAc(b1-3)Gal
Procedure, shortened: as §1

[6] = target: GalNAc(b1-3)Gal(a1-4)Gal(b1-4)GlcNAc
Procedure, shortened: as §1

[7] = target: GalNAc(b1-3)Gal(a1-4)Gal(b1-4)GlcNAc(b1-3)Gal(b1-4)Glc
Procedure, shortened: as §1

[8] = target: GalNAc(b1-3)Gal(a1-6)Gal(b1-4)Glc
Procedure, shortened: as §1

GalNAc(b1-3)GalNAc = target: GalNAc(b1-3)GalNAc
Procedure, shortened: as §1

GalNAc(b1-3)GlcNAc = target: GalNAc(b1-3)GlcNAc
Procedure, shortened: as §1

GalNAc(b1-4)Gal(b1-4)Glc = target: GalNAc(b1-4)Gal(b1-4)Glc
Procedure, shortened: as §1

GalNAc(b1-4)GlcNAc = target: GalNAc(b1-4)GlcNAc
Procedure, shortened: as §1

[9] = target: GalNAc(b1-4)GlcNAc(b1-2)Man
Procedure, shortened: as §1

[10] = target: GalNAc(b1-4)GlcNAc(b1-2)Man(a1-3)[GalNAc(b1-4)GlcNAc(b1-2)Man(a1-6)]Man(b1-4)GlcNAc(b1-4)GlcNAc
Procedure, shortened: as §1

[11] = target: GalNAc(b1-4)GlcNAc(b1-3)GalNAc(b1-4)GlcNAc
Procedure, shortened: as §1

GalNAc(b1-4)GlcNAc6S = target: GalNAc(b1-4)GlcNAc6S
Procedure, shortened: as §1

GalNAc(b1-6)GalNAc = target: GalNAc(b1-6)GalNAc
Procedure, shortened: as §1

GalNAc3S(b1-4)GlcNAc = target: GalNAc3S(b1-4)GlcNAc
Procedure, shortened: as §1

GalNAc3S(b1-4)GlcNAc3S = target: GalNAc3S(b1-4)GlcNAc3S
Procedure, shortened: as §1

[12] = target: GalNAc3S(b1-4)[Fuc(a1-3)]GlcNAc
Procedure, shortened: as §1

GalNAc4S6S(b1-4)GlcNAc = target: GalNAc4S6S(b1-4)GlcNAc
Procedure, shortened: as §1

GalNAc6S(b1-4)GlcNAc = target: GalNAc6S(b1-4)GlcNAc
Procedure, shortened: as §1

Glc(a1-4)Glc = target: Glc(a1-4)Glc
Procedure, shortened: as §1

[13] = target: Glc(a1-4)Glc(a1-4)Glc(a1-4)Glc
Procedure, shortened: as §1

Glc(a1-6)Glc(a1-6)Glc = target: Glc(a1-6)Glc(a1-6)Glc
Procedure, shortened: as §1

[14] = target: Glc(a1-6)Glc(a1-6)Glc(a1-6)Glc
Procedure, shortened: as §1

Glc(b1-4)Glc = target: Glc(b1-4)Glc
Procedure, shortened: as §1

B1: GS13814A-bth-462-26-462 (Bacteroides thetaiotaomicron) (protein)
chain: DDRDNLMVNDQIGLLHSTYTETEIFRGMDTPYQLFVIKSGKGKQETEVSISVDETVLQSYNTDNGTSIQLLPSDCYTILQPALRLNDSDYRKAFDIKWNADRLSDLLSTGKEYGLPIQMSVVQNFISADDERLKTIIVPTIKEPYLQMDVPGMSPVTDFMPTFGDLNERELFVKIRTNYSNDEDISFQIEVDPQLVIDYNTAHGTAYKMLPESSFTVDNKGVILTGMKETFIKIKYHKKGLIPEEGTYLFGDYVLPLRITSVSKYGISPDAASKLYTVKFQPDPIDKKGWSVIDFNNCCTQDGGWYLNMGWGVESLIDNNPGTQWLCRWDVKEPLPYYFVFDMGKEYTLFRFGFANPVAPAAHVWAGTSKAGYVEASIDNENWVKLKDWTSPKIGEPNVNMDVPATQARYIRFVITDTYPTYDGLRVSLGEVYAWGM
Gal3S(b1-4)Glc
  glycan array binding signal (z-score): -0.952
Gal3S(b1-4)Glc6S
  glycan array binding signal (z-score): -0.017
Gal3S(b1-4)GlcNAc
  glycan array binding signal (z-score): -0.34
[1]
  glycan array binding signal (z-score): 0.367
[2]
  glycan array binding signal (z-score): 0.598
[3]
  glycan array binding signal (z-score): -0.372
Gal3S4S(b1-4)GlcNAc
  glycan array binding signal (z-score): 0.205
Gal3S6S(b1-4)GlcNAc
  glycan array binding signal (z-score): 1.62
Gal3S6S(b1-4)GlcNAc6S
  glycan array binding signal (z-score): 2.45
Gal4S(b1-4)GlcNAc
  glycan array binding signal (z-score): 1.27
Gal4S6S(b1-4)GlcNAc
  glycan array binding signal (z-score): 1.02
Gal6P(b1-4)GlcNAc
  glycan array binding signal (z-score): -0.335
Gal6S(b1-3)GlcNAc
  glycan array binding signal (z-score): -0.522
Gal6S(b1-3)GlcNAc6S
  glycan array binding signal (z-score): -0.024
Gal6S(b1-4)Glc
  glycan array binding signal (z-score): 0.141
Gal6S(b1-4)Glc6S
  glycan array binding signal (z-score): -0.606
Gal6S(b1-4)GlcNAc
  glycan array binding signal (z-score): 0.113
Gal6S(b1-4)GlcNAc6S
  glycan array binding signal (z-score): -0.754
GalNAc(a1-3)Gal
  glycan array binding signal (z-score): -0.303
GalNAc(a1-3)GalNAc
  glycan array binding signal (z-score): -0.59
[4]
  glycan array binding signal (z-score): -0.801
[5]
  glycan array binding signal (z-score): -1.3
GalNAc(b1-3)Gal
  glycan array binding signal (z-score): -0.506
[6]
  glycan array binding signal (z-score): 2.74
[7]
  glycan array binding signal (z-score): -0.981
[8]
  glycan array binding signal (z-score): -0.576
GalNAc(b1-3)GalNAc
  glycan array binding signal (z-score): 0.545
GalNAc(b1-3)GlcNAc
  glycan array binding signal (z-score): -0.957
GalNAc(b1-4)Gal(b1-4)Glc
  glycan array binding signal (z-score): -1.17
GalNAc(b1-4)GlcNAc
  glycan array binding signal (z-score): 1.57
[9]
  glycan array binding signal (z-score): 0.168
[10]
  glycan array binding signal (z-score): -0.618
[11]
  glycan array binding signal (z-score): -0.079
GalNAc(b1-4)GlcNAc6S
  glycan array binding signal (z-score): -0.003
GalNAc(b1-6)GalNAc
  glycan array binding signal (z-score): -0.44
GalNAc3S(b1-4)GlcNAc
  glycan array binding signal (z-score): -0.305
GalNAc3S(b1-4)GlcNAc3S
  glycan array binding signal (z-score): -0.469
[12]
  glycan array binding signal (z-score): -0.189
GalNAc4S6S(b1-4)GlcNAc
  glycan array binding signal (z-score): 0.092
GalNAc6S(b1-4)GlcNAc
  glycan array binding signal (z-score): -0.938
Glc(a1-4)Glc
  glycan array binding signal (z-score): -0.58
[13]
  glycan array binding signal (z-score): 0.18
Glc(a1-6)Glc(a1-6)Glc
  glycan array binding signal (z-score): -0.354
[14]
  glycan array binding signal (z-score): -0.42
Glc(b1-4)Glc
  glycan array binding signal (z-score): 0.52
